From paper PMC11006775
These are yes or no findings as the source states them, for the method shown. Binding seen in cells or lysates may run through a third protein. A result given as binding can be weak or reduced; the word gives no strength.

Target: T1, sperm acrosome membrane-associated protein 1 (SPACA1) (mouse (endogenous in cauda epididymis)) (UniProt Q9DA48)
T1 sequence: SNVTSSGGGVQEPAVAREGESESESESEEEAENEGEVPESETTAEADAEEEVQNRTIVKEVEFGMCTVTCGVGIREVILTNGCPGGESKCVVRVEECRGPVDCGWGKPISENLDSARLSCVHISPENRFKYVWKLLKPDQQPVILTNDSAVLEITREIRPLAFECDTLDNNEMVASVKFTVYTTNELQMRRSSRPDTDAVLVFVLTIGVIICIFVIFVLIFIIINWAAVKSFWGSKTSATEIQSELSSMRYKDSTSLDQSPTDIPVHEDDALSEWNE
Assay: co-IP; cauda epididymal extracts in NP-40 lysis buffer (50 mM Tris, 150 mM NaCl, 0.5% NP-40, pH 7.5); immunoprecipitation with anti-SPACA1 antibody overnight at 4 °C, Protein A/G beads, rabbit IgG as negative control; western blotting

CCDC28A (coiled-coil domain containing 28A)
binding: binds
